Assay results as given in US10980233B2, “Oxadiazole compound and use thereof as pesticides” (Sumitomo Chemical Company, Limited, priority 2016, dated 2021).
Some entries share one result that the patent states for a list of compounds. For at least one compound, name, drawing or mass did not settle the structure.

What was measured:
Septoria tritici [1] = experiment: Test Example 1: Test for controlling Septoria tritici (microtiter plate growth); type: cell-based; settings: 1500 ppm in dimethyl sulfoxide, 1 μL per well + 150 μL PDB medium; 18° C., five days; absorbance at 550 nm
Phakopsora pachyrhizi [2] = experiment: Test Example 4: Test for controlling soybean rust on soybean (spray after inoculation); type: in vivo; settings: 200 ppm foliar spray (Formulation example 6) three days after inoculation; soybean cultivar Kurosengoku; examined after eight days
Phakopsora pachyrhizi [3] = experiment: Test Example 5: Test for controlling soybean rust on soybean (spray before inoculation); type: in vivo; settings: 200 ppm foliar spray (Formulation example 6); inoculation four days after the application; soybean cultivar Kurosengoku
Septoria tritici [4] = experiment: Test Example 6: Test for controlling Septoria leaf blotch on wheat; type: in vivo; settings: 200 ppm foliar spray (Formulation example 6); inoculation four days after the application; wheat cultivar Apogee
Rhynchosporium secalis = experiment: Test Example 10: Test for controlling barley scald on barley; type: in vivo; settings: 200 ppm foliar spray (Formulation example 6); inoculation one day after the application; barley cultivar Nishinohoshi
Colletotrichum truncatum = experiment: Test Example 3: Test for controlling Colletotrichum truncatum (microtiter plate growth); type: cell-based; settings: 1500 ppm in dimethyl sulfoxide, 1 μL per well + 150 μL PDB medium; 18° C., four days; absorbance at 550 nm
Septoria tritici [5] = experiment: Test Example 11: Test for controlling Septoria leaf blotch on wheat; type: in vivo; settings: 500 ppm foliar spray (Formulation example 6); inoculation four days after the application; wheat cultivar Apogee
Pyrenophora teres = experiment: Test Example 13: Test for controlling net blotch on barley; type: in vivo; settings: 500 ppm foliar spray (Formulation example 6); inoculation two days after the application; barley cultivar Nishinohoshi
Microsphaera diffusa = experiment: Test Example 14: Test for controlling powdery mildew on soybean (spray after inoculation); type: in vivo; settings: 200 ppm foliar spray (Formulation example 6) two days after inoculation; soybean cultivar Kurosengoku; examined after nine days

Row | SMILES | degree of growth of Septoria tritici as compared to the degree of growth in the untreated group (Septoria tritici [1]) [%] | lesion area as compared to the lesion area in the untreated group of soybeans (Phakopsora pachyrhizi [2]) [%] | lesion area as compared to the lesion area in the untreated group of soybeans (Phakopsora pachyrhizi [3]) [%] | lesion area as compared to the lesion area in the untreated group of wheat (Septoria tritici [4]) [%] | lesion area as compared to the lesion area in the untreated group of barley (Rhynchosporium secalis) [%] | degree of growth of Colletotrichum truncatum as compared to the degree of growth in the untreated group (Colletotrichum truncatum) [%] | lesion area as compared to the lesion area in the untreated group of wheat (Septoria tritici [5]) [%] | lesion area as compared to the lesion area in the untreated group of barley (Pyrenophora teres) [%] | lesion area as compared to the lesion area in the untreated group of soybeans (Microsphaera diffusa) [%]
1 | ON=Cc1ccc(-c2noc(C(F)(F)F)n2)cc1 [compound 1] | ≤ 50 | ≤ 30 | ≤ 30 | – | – | – | – | – | –
2 | NC(=NO)c1ccc(-c2noc(C(F)(F)F)n2)cc1 [compound 2] | ≤ 50 | ≤ 30 | ≤ 30 | ≤ 30 | ≤ 30 | – | – | – | –
3 | CCCON=Cc1ccc(-c2noc(C(F)(F)F)n2)cc1 [compound 5] | – | ≤ 30 | – | – | – | – | – | – | –
4 | N#CCON=Cc1ccc(-c2noc(C(F)(F)F)n2)cc1 [compound 6] | ≤ 50 | ≤ 30 | ≤ 30 | – | – | ≤ 50 | ≤ 30 | ≤ 30 | –
5 | COCON=Cc1ccc(-c2noc(C(F)(F)F)n2)cc1 [compound 7] | – | ≤ 30 | ≤ 30 | – | – | – | – | – | –
6 | C#CCON=Cc1ccc(-c2noc(C(F)(F)F)n2)cc1 [compound 8] | – | ≤ 30 | – | – | – | – | – | – | –
7 | CON=C(N)c1ccc(-c2noc(C(F)(F)F)n2)cc1 [compound 10] | – | ≤ 30 | ≤ 30 | ≤ 30 | ≤ 30 | – | – | – | –
8 | CNC(=NOC)c1ccc(-c2noc(C(F)(F)F)n2)cc1 [compound 12] | ≤ 50 | ≤ 30 | ≤ 30 | – | – | – | – | – | –
9 | CON=C(c1ccc(-c2noc(C(F)(F)F)n2)cc1)N(C)C [compound 14] | – | ≤ 30 | ≤ 30 | – | – | – | – | – | –
10 | CN(C)C(=NOCC#N)c1ccc(-c2noc(C(F)(F)F)n2)cc1 [compound 15] | – | ≤ 30 | ≤ 30 | – | – | – | – | – | –
11 | CON=C(C#N)c1ccc(-c2noc(C(F)(F)F)n2)cc1 [compound 16] | – | ≤ 30 | ≤ 30 | – | – | – | – | – | –
12 | N#CCON=C(C#N)c1ccc(-c2noc(C(F)(F)F)n2)cc1 [compound 17] | – | ≤ 30 | ≤ 30 | – | – | ≤ 50 | – | – | –
13 | CCC(=O)ON=Cc1ccc(-c2noc(C(F)(F)F)n2)cc1 [compound 18] | ≤ 50 | ≤ 30 | ≤ 30 | – | – | – | – | – | –
14 | CNC(=NO)c1ccc(-c2noc(C(F)(F)F)n2)cc1 [compound 19] | – | ≤ 30 | ≤ 30 | – | – | – | – | ≤ 30 | –
15 | CN(C)C(=NO)c1ccc(-c2noc(C(F)(F)F)n2)cc1 [compound 20] | – | ≤ 30 | ≤ 30 | – | – | – | – | – | –
16 | N#CC(=NO)c1ccc(-c2noc(C(F)(F)F)n2)cc1 [compound 21] | – | ≤ 30 | ≤ 30 | – | – | ≤ 50 | – | – | –
17 | COC(=NO)c1ccc(-c2noc(C(F)(F)F)n2)cc1 [compound 22] | ≤ 50 | ≤ 30 | ≤ 30 | – | – | – | – | – | –
18 | CC(=NO)c1ccc(-c2noc(C(F)(F)F)n2)cc1 [compound 23] | ≤ 50 | ≤ 30 | ≤ 30 | – | – | ≤ 50 | ≤ 30 | – | ≤ 30
19 | ON=Cc1cccc(-c2noc(C(F)(F)F)n2)c1 [compound 25] | ≤ 50 | ≤ 30 | – | – | – | ≤ 50 | – | – | –
20 | CCNC(=NO)c1ccc(-c2noc(C(F)(F)F)n2)cc1 [compound 26] | – | ≤ 30 | ≤ 30 | ≤ 30 | – | – | ≤ 30 | – | ≤ 30
21 | CCCNC(=NO)c1ccc(-c2noc(C(F)(F)F)n2)cc1 [compound 27] | – | ≤ 30 | ≤ 30 | – | – | – | ≤ 30 | – | ≤ 30
22 | CC(C)NC(=NO)c1ccc(-c2noc(C(F)(F)F)n2)cc1 [compound 28] | – | ≤ 30 | ≤ 30 | ≤ 30 | – | – | ≤ 30 | ≤ 30 | –
23 | ON=C(NC1CC1)c1ccc(-c2noc(C(F)(F)F)n2)cc1 [compound 29] | – | ≤ 30 | ≤ 30 | ≤ 30 | – | – | ≤ 30 | – | –
24 | ON=C(NCc1ccccc1)c1ccc(-c2noc(C(F)(F)F)n2)cc1 [compound 30] | ≤ 50 | ≤ 30 | ≤ 30 | ≤ 30 | ≤ 30 | – | ≤ 30 | – | –
25 | COCCNC(=NO)c1ccc(-c2noc(C(F)(F)F)n2)cc1 [compound 31] | – | ≤ 30 | ≤ 30 | ≤ 30 | – | – | ≤ 30 | – | –
26 | CCN(C)C(=NO)c1ccc(-c2noc(C(F)(F)F)n2)cc1 [compound 32] | – | ≤ 30 | ≤ 30 | ≤ 30 | – | – | ≤ 30 | ≤ 30 | ≤ 30
27 | CN(C(=NO)c1ccc(-c2noc(C(F)(F)F)n2)cc1)c1ccccc1 [compound 33] | ≤ 50 | ≤ 30 | ≤ 30 | ≤ 30 | – | ≤ 50 | – | – | –
28 | ON=C(c1ccc(-c2noc(C(F)(F)F)n2)cc1)N1CCCC1 [compound 36] | – | ≤ 30 | ≤ 30 | – | – | – | ≤ 30 | ≤ 30 | ≤ 30
29 | ON=C(c1ccc(-c2noc(C(F)(F)F)n2)cc1)N1CCOCC1 [compound 37] | – | – | – | – | – | – | ≤ 30 | – | –
30 | CSC(=NO)c1ccc(-c2noc(C(F)(F)F)n2)cc1 [compound 38] | ≤ 50 | ≤ 30 | ≤ 30 | ≤ 30 | – | – | ≤ 30 | ≤ 30 | –
